Assay results from article PMC11057417.
Results are given in words; binding and its absence hold for the method and conditions named. In cells and extracts the contact can be indirect. Some binding calls cover weakened binding; strength is not graded here.

Chains of the proteins cited; added tags and fusions are not shown.
UniProt P11940: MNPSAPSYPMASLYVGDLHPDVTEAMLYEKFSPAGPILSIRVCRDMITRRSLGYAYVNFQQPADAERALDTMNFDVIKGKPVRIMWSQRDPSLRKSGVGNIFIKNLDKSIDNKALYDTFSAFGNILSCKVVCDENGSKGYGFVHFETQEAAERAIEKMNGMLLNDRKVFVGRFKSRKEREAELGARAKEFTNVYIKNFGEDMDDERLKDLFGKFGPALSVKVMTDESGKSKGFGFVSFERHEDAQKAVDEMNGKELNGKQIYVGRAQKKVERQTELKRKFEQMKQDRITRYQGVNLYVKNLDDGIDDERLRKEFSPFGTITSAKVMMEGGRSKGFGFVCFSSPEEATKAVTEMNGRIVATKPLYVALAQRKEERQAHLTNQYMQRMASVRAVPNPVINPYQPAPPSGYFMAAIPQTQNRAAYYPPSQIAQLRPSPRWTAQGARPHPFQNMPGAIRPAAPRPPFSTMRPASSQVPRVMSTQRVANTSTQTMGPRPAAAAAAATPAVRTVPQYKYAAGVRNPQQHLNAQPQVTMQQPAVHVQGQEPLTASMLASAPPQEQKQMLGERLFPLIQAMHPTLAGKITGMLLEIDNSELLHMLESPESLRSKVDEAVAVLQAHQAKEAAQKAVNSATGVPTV

T1: YTH m6A RNA-binding protein 1 (YTHDF1) (human (endogenous in NOZ)) (UniProt Q9BYJ9)
T1 sequence: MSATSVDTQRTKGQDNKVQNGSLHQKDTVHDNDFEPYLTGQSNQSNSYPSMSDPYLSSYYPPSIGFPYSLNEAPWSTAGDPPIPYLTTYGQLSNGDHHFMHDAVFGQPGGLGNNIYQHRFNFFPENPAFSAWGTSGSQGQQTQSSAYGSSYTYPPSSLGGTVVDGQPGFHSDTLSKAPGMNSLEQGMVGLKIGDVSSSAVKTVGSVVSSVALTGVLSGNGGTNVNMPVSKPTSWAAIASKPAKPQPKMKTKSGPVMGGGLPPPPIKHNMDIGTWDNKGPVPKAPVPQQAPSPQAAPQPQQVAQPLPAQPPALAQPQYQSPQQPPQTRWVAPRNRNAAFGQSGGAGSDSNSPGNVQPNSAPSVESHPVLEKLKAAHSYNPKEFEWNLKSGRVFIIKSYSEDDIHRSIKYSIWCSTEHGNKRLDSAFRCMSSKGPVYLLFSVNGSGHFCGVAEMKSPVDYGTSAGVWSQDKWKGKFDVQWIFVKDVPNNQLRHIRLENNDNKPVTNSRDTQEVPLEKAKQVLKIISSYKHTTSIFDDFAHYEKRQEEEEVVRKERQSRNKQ


Legend:
[1] = target: T1, YTH m6A RNA-binding protein 1 (YTHDF1) (human (endogenous in NOZ)); test: co-IP; reciprocal co-IP from NOZ cell lysate; anti-YTHDF1, anti-PABPC1 or IgG isotype control on Protein G Dynabeads; IP Lysis buffer (10 mM Tris-HCl, 150 mM NaCl, 0.5% Igepal CA-630), 4°C for 2 h, NT2 wash buffer; Western blotting of 10% Input, IgG and IP
[2] = target: PABPC1 (human (endogenous in NOZ)) (UniProt P11940); test: as above

Molecule	binding [1]	binding [2]
PABPC1 (from UniProt P11940 1-636)	binds	–
YTH m6A RNA-binding protein 1 (YTHDF1) (protein, UniProt Q9BYJ9 1-559) MSATSVDTQRTKGQDNKVQNGSLHQKDTVHDNDFEPYLTGQSNQSNSYPSMSDPYLSSYYPPSIGFPYSLNEAPWSTAGDPPIPYLTTYGQLSNGDHHFMHDAVFGQPGGLGNNIYQHRFNFFPENPAFSAWGTSGSQGQQTQSSAYGSSYTYPPSSLGGTVVDGQPGFHSDTLSKAPGMNSLEQGMVGLKIGDVSSSAVKTVGSVVSSVALTGVLSGNGGTNVNMPVSKPTSWAAIASKPAKPQPKMKTKSGPVMGGGLPPPPIKHNMDIGTWDNKGPVPKAPVPQQAPSPQAAPQPQQVAQPLPAQPPALAQPQYQSPQQPPQTRWVAPRNRNAAFGQSGGAGSDSNSPGNVQPNSAPSVESHPVLEKLKAAHSYNPKEFEWNLKSGRVFIIKSYSEDDIHRSIKYSIWCSTEHGNKRLDSAFRCMSSKGPVYLLFSVNGSGHFCGVAEMKSPVDYGTSAGVWSQDKWKGKFDVQWIFVKDVPNNQLRHIRLENNDNKPVTNSRDTQEVPLEKAKQVLKIISSYKHTTSIFDDFAHYEKRQEEEEVVRKERQSRNKQ	–	binds
